# From the supplement of paper PMC10849652
# Protein sequences, listed by entry. Tags and fused reporters are not part of them. Lines headed by an entry give the natural chain unless they say otherwise; changes in a name come on top.
# UniProt Q6UW63: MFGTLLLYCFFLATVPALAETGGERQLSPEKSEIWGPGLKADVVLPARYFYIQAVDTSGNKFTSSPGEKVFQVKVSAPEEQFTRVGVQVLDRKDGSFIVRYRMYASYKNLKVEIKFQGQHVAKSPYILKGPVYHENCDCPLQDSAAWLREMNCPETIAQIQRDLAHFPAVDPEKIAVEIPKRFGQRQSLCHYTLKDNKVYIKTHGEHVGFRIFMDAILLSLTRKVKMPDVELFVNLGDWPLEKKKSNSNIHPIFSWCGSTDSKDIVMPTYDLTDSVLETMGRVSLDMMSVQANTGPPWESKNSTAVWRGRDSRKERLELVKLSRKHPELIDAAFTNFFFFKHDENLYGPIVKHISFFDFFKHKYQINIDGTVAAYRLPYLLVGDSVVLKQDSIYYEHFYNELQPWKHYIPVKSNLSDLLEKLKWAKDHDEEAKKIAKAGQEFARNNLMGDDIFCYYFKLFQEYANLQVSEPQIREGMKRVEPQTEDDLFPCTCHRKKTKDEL
# UniProt P14859: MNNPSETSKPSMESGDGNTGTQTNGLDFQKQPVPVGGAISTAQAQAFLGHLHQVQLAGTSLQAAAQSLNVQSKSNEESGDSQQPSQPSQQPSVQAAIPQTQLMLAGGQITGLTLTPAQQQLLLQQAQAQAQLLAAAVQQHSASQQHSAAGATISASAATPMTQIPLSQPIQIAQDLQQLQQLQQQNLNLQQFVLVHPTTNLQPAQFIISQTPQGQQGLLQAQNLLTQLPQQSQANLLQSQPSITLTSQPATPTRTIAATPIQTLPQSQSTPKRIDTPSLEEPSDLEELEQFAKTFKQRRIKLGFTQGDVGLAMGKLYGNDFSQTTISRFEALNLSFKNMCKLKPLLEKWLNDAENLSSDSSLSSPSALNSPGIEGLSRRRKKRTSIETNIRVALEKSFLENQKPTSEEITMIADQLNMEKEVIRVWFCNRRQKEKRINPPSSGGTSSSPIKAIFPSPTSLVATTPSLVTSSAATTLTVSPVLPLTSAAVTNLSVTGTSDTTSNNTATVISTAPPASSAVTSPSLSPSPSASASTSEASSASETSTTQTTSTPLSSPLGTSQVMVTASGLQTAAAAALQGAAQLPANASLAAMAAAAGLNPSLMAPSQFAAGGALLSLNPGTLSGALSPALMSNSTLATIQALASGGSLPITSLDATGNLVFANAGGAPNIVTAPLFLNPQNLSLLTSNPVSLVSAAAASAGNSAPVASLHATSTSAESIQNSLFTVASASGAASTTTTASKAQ
# UniProt Q9UNP9: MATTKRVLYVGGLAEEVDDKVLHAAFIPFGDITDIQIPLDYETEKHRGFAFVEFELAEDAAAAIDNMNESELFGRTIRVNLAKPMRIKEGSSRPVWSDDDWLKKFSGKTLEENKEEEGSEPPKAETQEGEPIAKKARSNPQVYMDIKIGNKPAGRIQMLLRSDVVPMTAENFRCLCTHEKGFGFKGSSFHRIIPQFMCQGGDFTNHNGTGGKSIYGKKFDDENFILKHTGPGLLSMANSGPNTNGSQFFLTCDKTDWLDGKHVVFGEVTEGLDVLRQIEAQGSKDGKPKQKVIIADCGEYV
# UniProt Q9Y2G5: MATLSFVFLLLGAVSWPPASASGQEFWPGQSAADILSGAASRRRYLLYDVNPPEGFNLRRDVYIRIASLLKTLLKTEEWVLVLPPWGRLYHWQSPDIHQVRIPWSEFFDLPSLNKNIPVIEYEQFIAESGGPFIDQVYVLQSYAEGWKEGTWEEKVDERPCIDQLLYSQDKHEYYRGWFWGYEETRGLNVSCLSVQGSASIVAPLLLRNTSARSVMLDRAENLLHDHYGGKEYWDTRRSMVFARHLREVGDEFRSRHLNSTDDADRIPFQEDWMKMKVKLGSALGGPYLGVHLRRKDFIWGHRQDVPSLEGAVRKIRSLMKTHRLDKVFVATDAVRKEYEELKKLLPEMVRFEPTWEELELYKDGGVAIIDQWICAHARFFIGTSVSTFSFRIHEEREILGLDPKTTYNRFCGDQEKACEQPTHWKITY
# UniProt P62937, whole entry, looked up: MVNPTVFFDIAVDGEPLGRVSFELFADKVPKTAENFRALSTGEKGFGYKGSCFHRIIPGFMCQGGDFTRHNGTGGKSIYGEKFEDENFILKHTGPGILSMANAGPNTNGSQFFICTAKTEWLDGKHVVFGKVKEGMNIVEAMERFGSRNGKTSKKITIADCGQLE
# UniProt O75688: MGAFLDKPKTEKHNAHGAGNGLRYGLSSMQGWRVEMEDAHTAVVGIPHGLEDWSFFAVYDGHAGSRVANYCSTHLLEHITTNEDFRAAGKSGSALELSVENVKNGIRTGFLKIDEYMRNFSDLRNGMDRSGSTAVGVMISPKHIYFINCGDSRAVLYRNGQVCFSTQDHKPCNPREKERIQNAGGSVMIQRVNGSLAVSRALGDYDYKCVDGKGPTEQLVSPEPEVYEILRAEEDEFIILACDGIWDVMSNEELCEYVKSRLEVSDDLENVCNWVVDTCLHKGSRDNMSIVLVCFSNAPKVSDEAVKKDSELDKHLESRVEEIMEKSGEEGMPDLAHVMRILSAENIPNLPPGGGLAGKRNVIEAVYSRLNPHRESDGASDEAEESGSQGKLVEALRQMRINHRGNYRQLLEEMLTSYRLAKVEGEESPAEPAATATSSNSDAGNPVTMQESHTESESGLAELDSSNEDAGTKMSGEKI
# UniProt O43314: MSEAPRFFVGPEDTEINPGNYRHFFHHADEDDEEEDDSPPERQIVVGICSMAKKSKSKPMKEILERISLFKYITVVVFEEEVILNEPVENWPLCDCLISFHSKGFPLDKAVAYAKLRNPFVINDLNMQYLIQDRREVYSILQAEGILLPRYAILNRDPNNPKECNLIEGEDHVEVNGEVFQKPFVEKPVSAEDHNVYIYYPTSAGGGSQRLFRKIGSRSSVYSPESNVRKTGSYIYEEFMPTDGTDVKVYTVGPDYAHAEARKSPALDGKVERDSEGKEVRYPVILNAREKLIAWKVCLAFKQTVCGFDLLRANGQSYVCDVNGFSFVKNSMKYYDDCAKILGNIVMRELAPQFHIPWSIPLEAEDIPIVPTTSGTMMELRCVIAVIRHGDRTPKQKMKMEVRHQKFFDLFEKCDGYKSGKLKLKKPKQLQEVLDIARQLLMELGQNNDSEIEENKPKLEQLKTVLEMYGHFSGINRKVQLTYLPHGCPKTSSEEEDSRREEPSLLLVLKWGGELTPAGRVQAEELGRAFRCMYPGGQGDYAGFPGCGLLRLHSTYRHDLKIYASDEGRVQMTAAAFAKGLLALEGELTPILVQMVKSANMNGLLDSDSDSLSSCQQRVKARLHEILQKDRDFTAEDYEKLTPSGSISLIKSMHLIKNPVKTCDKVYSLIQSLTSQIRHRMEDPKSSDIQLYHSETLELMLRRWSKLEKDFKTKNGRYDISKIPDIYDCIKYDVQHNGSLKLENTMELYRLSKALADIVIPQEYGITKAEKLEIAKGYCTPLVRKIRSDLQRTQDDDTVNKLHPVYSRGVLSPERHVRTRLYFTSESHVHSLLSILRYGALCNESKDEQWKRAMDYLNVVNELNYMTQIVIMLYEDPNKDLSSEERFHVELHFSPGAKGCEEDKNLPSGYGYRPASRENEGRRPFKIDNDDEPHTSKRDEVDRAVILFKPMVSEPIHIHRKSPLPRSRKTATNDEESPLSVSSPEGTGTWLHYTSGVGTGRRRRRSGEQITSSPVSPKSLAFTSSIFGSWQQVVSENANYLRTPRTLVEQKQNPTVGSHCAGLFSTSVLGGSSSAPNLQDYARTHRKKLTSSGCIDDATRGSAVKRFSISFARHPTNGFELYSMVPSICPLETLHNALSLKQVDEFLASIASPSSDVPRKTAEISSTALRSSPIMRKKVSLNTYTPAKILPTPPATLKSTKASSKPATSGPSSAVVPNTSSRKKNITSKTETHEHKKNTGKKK
# UniProt Q9NVS9: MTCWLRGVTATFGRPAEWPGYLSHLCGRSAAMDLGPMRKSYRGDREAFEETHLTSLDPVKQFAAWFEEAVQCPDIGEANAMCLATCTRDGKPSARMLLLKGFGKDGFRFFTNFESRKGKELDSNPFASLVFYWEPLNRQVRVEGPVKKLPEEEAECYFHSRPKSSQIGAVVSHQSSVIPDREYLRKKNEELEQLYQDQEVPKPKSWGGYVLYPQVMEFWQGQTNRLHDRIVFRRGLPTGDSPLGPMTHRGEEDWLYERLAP
# UniProt Q9BY77: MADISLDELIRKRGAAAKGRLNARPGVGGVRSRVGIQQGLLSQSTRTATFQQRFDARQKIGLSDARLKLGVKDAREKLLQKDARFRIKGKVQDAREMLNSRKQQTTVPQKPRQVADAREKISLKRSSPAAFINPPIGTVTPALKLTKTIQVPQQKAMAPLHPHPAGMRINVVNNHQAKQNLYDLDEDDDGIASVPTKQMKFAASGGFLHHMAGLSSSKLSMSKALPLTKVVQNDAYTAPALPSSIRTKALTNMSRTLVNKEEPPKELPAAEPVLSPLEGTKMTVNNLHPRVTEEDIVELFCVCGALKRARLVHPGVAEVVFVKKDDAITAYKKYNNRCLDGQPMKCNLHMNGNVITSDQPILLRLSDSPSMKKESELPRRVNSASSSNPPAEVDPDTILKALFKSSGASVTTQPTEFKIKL
# UniProt Q6P1K2: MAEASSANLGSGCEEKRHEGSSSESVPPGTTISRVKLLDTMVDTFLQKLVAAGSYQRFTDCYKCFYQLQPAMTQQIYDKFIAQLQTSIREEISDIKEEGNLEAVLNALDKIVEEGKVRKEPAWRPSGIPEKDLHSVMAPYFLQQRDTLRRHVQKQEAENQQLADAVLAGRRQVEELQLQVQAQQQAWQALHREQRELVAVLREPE
# UniProt Q9NRX1: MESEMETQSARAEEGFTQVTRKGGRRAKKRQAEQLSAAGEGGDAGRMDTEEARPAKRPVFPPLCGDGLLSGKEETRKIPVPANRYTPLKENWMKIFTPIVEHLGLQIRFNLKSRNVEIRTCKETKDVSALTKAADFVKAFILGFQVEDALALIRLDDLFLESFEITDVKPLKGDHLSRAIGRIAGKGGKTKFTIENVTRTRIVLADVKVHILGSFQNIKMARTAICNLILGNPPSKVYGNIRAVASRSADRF
# UniProt Q8WZA1: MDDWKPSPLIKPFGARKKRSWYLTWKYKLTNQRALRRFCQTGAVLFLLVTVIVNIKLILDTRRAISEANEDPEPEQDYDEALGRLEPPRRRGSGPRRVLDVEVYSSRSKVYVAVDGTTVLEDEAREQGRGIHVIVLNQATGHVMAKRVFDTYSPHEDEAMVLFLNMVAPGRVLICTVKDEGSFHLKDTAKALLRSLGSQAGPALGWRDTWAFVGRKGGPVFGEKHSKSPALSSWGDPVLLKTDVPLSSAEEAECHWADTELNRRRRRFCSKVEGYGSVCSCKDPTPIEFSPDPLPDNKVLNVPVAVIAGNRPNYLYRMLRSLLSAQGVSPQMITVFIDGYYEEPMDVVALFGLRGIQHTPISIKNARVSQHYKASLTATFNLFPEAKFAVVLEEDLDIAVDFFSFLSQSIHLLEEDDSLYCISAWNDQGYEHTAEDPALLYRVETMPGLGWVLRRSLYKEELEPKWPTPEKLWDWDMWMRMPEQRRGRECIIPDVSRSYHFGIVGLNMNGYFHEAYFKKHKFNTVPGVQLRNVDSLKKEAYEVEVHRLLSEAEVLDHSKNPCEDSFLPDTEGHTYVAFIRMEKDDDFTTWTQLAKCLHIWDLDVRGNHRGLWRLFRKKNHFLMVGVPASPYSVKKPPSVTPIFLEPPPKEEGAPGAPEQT
# UniProt Q06203, whole entry, looked up: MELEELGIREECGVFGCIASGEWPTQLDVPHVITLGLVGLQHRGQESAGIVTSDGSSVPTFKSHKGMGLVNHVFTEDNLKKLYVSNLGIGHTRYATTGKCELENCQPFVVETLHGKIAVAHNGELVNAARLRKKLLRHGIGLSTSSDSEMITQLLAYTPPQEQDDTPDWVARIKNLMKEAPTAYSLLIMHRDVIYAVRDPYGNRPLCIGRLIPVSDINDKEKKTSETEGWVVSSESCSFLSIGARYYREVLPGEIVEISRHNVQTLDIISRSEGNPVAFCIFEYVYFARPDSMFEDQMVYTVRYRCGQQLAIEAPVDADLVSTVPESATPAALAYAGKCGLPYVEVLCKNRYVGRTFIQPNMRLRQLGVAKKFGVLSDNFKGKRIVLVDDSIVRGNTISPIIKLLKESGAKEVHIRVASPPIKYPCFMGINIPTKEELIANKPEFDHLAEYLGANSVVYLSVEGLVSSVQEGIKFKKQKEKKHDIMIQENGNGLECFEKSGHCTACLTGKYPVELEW
# UniProt Q9Y2S7: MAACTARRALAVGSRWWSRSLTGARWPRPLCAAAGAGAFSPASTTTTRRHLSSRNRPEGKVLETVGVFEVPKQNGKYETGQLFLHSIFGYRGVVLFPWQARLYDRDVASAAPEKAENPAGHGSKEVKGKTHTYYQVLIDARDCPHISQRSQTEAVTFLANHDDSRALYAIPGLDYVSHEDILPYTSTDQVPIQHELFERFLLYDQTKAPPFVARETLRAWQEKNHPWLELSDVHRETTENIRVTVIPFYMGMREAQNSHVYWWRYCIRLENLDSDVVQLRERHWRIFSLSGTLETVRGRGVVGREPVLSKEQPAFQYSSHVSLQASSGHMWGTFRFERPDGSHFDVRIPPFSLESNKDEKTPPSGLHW
# The list shows a part of the results.
# Compound: CN1CCN(c2nc(C3=C(c4c[nH]c5ccccc45)C(=O)NC3=O)c3ccccc3n2)CC1 [sotrastaurin]
# Assay: log2 fold change, soluble protein after heating vs DMSO (PISA); higher = thermal stabilisation; K562 cells, 10 uM, 30 min; active = over 0.2 and 3.5 SD of the protein, either way, in both replicates (recomputed)
# Procedure, shortened: (§1)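 Quantification of soluble protein used TMTpro 16plex LC-MS/MS, with channel sums equalised. Samples were the supernatant after 21,000xg for 90 min of pooled aliquots from K562 cells (2×10^6 cells/mL) treated with 10 μM compound for 30 min, heated for 3 min over 48°C-58°C, and extracted in PBS with 0.5% NP-40 at 4°C. Values, from duplicates, describe thermal stability against control samples on a log2 fold-change scale.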
row,Target,log2 fold change
1,PPCDC (UniProt Q96CD2),inactive: -0.011
2,POLR2H (UniProt P52434),inactive: -0.019
3,POGLUT2 (UniProt Q6UW63),inactive: 0.015
4,POLR3F (UniProt Q9H1D9),inactive: 0.038
5,PPA1 (UniProt Q15181),inactive: 0.011
6,POTEF (UniProt A5A3E0),inactive: 0.034
7,POU2F1 isoform 6 (UniProt P14859),inactive: -0.114
8,PNKD isoform 2 (UniProt Q8N490),inactive: 0.068
9,PPIF (UniProt P30405),inactive: 0.06
10,PPIE (UniProt Q9UNP9),inactive: 0.046

# Compound: CN1CC[C@H](c2c(O)cc(O)c3c(=O)cc(-c4ccccc4Cl)oc23)[C@H](O)C1 [alvocidib]
# Assay: as above
# Procedure, shortened: as §1
row,Target,log2 fold change
1,POFUT2 (UniProt Q9Y2G5),inactive: 0.021
2,PPIA (UniProt P62937),inactive: -0.048
3,POLR3C (UniProt Q9BUI4),inactive: -0.07
4,POFUT1 (UniProt Q9H488),inactive: 0.034
5,PPM1B (UniProt O75688),inactive: -0.05
6,PPIP5K2 (UniProt O43314),inactive: -0.031
7,PNPO (UniProt Q9NVS9),inactive: -0.04
8,POLDIP3 (UniProt Q9BY77),inactive: 0.122
9,PPFIA1 (UniProt Q13136),inactive: -0.014
10,PMF1 (UniProt Q6P1K2),inactive: -0.111
11,POLG2 (UniProt Q9UHN1),inactive: 0.028
12,PLOD3 (UniProt O60568),inactive: 0.021
13,PLXNB2 (UniProt O15031),inactive: -0.053
14,PNO1 (UniProt Q9NRX1),inactive: 0.154
15,PLIN3 (UniProt O60664),inactive: -0.02
16,POMGNT1 isoform 2 (UniProt Q8WZA1),inactive: -0.046
17,POP7 (UniProt O75817),inactive: -0.053

row,Target,log2 fold change
1,PPAT (UniProt Q06203),inactive: -0.015
2,PPAN isoform 3 (UniProt Q9NQ55),inactive: 0.216
3,PPA2 (UniProt Q9H2U2),inactive: -0.018
4,POP5 (UniProt Q969H6),inactive: 0.014
5,POSTN (UniProt Q15063),inactive: 0.028
6,POLDIP2 (UniProt Q9Y2S7),inactive: -0.049
7,PPCDC (UniProt Q96CD2),inactive: -0.033
8,POLR2H (UniProt P52434),inactive: 0.053
9,POGLUT2 (UniProt Q6UW63),inactive: -0.002
10,POLR3F (UniProt Q9H1D9),inactive: -0.03
11,PPA1 (UniProt Q15181),inactive: -0.044
12,POTEF (UniProt A5A3E0),inactive: 0.003
13,POU2F1 isoform 6 (UniProt P14859),inactive: -0.083
14,PNKD isoform 2 (UniProt Q8N490),inactive: 0
15,PPIF (UniProt P30405),inactive: -0.07
16,PPIE (UniProt Q9UNP9),inactive: 0.048
